We go through five molecules from patent US20230348369A1 (Cytokinetics, Inc., priority 2020, published 2023).

Sequences of proteins named here, by UniProt entry; tags and fusion partners are left off.
UniProt P43490, whole entry: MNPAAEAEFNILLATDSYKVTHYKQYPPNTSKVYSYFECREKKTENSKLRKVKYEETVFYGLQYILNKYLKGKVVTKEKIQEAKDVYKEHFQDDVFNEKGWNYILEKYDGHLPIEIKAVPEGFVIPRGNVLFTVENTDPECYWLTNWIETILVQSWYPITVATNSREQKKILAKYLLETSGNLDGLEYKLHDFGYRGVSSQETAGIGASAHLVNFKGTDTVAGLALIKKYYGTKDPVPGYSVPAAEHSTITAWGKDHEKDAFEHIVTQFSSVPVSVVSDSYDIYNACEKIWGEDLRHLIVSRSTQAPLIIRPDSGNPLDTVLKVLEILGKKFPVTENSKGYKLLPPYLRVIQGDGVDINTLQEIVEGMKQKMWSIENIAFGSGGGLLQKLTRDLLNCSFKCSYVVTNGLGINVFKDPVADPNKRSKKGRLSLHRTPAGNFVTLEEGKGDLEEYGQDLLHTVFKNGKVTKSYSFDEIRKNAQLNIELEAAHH

The match of structure and compound is tentative.

The target of the test is human NAMPT (Homo sapiens, UniProt P43490). Put plainly: Human recombinant enzyme assay (NMN fluorescence biochemical assay, activation of NAMPT). The note with it: for AC1.4 Human: Table A, NMN formation, 60 min; for EC50: read-out: EC50 Human, Table A, NMN formation, 60 min. The method, then: Compounds described herein were assayed for their ability to stimulate the synthesis of nicotinamide mononucleotide (NMN) by the enzyme NAMPT. The human recombinant enzyme assay measures the activation of the enzyme activity by compounds using recombinant enzyme and substrates in a buffered cell-free system. The assay conditions closely mimic cellular environments. Dose responses were measured using an assay to detect the formation of nicotinamide mono-nucleotide. All experiments were performed in the 384-well format. Generally, 0.5 μL of DMSO containing varying concentrations of the test compound was mixed with 10 μL of the enzyme reagent solution. Enzyme reactions were initiated with the addition of 10 μL of a solution containing the substrates. The final assay conditions were as follows: 6 nM human NAMPT, 2.5 mM ATP, 20 μM PRPP and 150 μM nicotinamide in 50 mM HEPES, pH 7.2, 1 mM DTT, 1 mM CHAPS 50 mM NaCl, 100 mM MgCl2. Following an incubation of 60 min at ambient temperature, 10 μL of 20% acetophenone in DMSO was added, followed by 10 μL of 2 M KOH and 40 μL of formic acid. The plates were read for fluorescence (Excitation/Emission=355 nm/460 nm) using an EnVision plate reader after 40 mins of incubation at ambient temperature. The potency measurements for compounds, are quantified and represented as AC1.4 (the concentration of compounds that generates 40% higher activity over basal) and EC50 (concentration of the compound that gives half-maximal activation).

As to `Cc1ccccc1C(=O)N1CCC(CCCCNC(=O)NCc2ccc(Cl)cc2)CC1`, the “AC1.4 Human” value was 0.1 µM and the EC50 (as a rule, the concentration that produces a half-maximal response) was 0.2 µM.

`COc1ccc(CNC(=O)NC2CC3(C2)CC(c2nnc(-c4ccc(C)nc4)o2)C3)cc1` (stereo not shown): the “AC1.4 Human” value stood at 6.2 µM and the concentration giving a half-maximal response (EC50) is 28.5 µM.

As for `Cc1cccc(C(=O)N2CCC(CCCCNC(=O)NCc3ccc(Cl)cc3)CC2)c1`, the “AC1.4 Human” value came to 0.8 µM and the EC50 is 2 µM.

With `COc1ccc(CNC(=O)NC2CC3(CCN(C(=O)OC(C)(C)C)C3)C2)cc1` (stereo not shown), the “AC1.4 Human” value came out at 19.3 µM and the EC50 came to 30.4 µM.

As to `Cc1cccc(C(=O)N2CCC(CCCCNC(=O)NCc3ccc(Cl)cc3)CC2)n1`, the “AC1.4 Human” value amounted to 1.1 µM and the EC50 stood at 2.9 µM.
